In PMC8463877:
No constants are given. Whether binding was seen depends on the method and setting. Some results given as binding are weak or reduced against the parent protein; the word gives no strength.

Protein sequences, listed by entry. Tags and fused reporters are not part of them.
UniProt P02511: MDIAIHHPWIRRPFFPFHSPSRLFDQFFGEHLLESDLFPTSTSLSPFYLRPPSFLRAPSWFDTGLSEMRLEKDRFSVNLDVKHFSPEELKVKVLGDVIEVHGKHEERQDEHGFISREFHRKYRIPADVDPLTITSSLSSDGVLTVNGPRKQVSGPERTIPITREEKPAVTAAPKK

What was measured:
[1] = molecular target: GFP-labeled αB-crystallin (αB-c-TEV site-GFP-His tag) (UniProt P02511); assay: native MS; samples at 20 μM electrosprayed, modified quadrupole-TOF; spectra fit with UniDec, oligomer mass list of 5 to 50 subunits; both purified
[2] = molecular target: GFP-labeled αB-crystallin (αB-c-TEV site-GFP-His tag) (UniProt P02511); assay: microfluidic diffusional sizing; GFP-αB-c alone, 21 °C; average hydrodynamic radius of the oligomer distribution; both purified

GFP-labeled αB-crystallin (αB-c-TEV site-GFP-His tag) (from UniProt P02511 1-175)
binding [1]: binds
binding [2]: binds
